One substance from article PMC3264624 can be followed below.

The chains behind the UniProt entries cited, without tags or fusion partners.
UniProt P40350: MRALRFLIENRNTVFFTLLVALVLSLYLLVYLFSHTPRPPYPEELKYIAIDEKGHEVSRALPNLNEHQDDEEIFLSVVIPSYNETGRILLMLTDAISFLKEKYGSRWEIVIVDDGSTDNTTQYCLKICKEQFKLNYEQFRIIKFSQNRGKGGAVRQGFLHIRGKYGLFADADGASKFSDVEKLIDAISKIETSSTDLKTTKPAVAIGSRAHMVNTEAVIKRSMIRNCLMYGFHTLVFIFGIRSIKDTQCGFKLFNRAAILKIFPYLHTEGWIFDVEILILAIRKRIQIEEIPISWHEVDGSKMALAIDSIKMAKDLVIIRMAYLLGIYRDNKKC

No constants are given. Whether binding was seen depends on the method and setting.

For the assay, the target named is yeast resident ER protein Alg5, split-ubiquitin control fusion (yeast) (UniProt P40350). Description: two-hybrid; yeast split-ubiquitin system (SUS), strain NMY32; Cub bait and NubG prey; growth on -LWH medium with 15 mM 3-AT, dilution series.

“NFR5, yeast split-ubiquitin fusion (from UniProt Q70KR1 1-595) (receptor)”: the binding entry is “no binding”.
